These are yes or no findings as the source states them, for the method shown. Binding seen in cells or lysates may run through a third protein. A result given as binding can be weak or reduced; the word gives no strength. Sequences can lack the tags named with a protein.
Experiments:
[1] = target: HA-Dvl2 (Dishevelled 2); experiment: co-IP; HEK293T cells co-transfected with tGFP-PTK7 (WT or variants) and HA-Dvl2 or HA-Vangl2; lysed in RIPA buffer 48 hr after transfection; anti-HA antibody with protein G beads overnight at 4°C; three washes with RIPA buffer; immunoblot with anti-tGFP or anti-HA
[2] = target: HA-Vangl2; experiment: as above

binding [1]: binds
binding [2]: binds
B1: tGFP-PTK7 (wildtype), protein tyrosine kinase 7 (receptor, UniProt Q13308 31-1070)
chain: AIVFIKQPSSQDALQGRRALLRCEVEAPGPVHVYWLLDGAPVQDTERRFAQGSSLSFAAVDRLQDSGTFQCVARDDVTGEEARSANASFNIKWIEAGPVVLKHPASEAEIQPQTQVTLRCHIDGHPRPTYQWFRDGTPLSDGQSNHTVSSKERNLTLRPAGPEHSGLYSCCAHSAFGQACSSQNFTLSIADESFARVVLAPQDVVVARYEEAMFHCQFSAQPPPSLQWLFEDETPITNRSRPPHLRRATVFANGSLLLTQVRPRNAGIYRCIGQGQRGPPIILEATLHLAEIEDMPLFEPRVFTAGSEERVTCLPPKGLPEPSVWWEHAGVRLPTHGRVYQKGHELVLANIAESDAGVYTCHAANLAGQRRQDVNITVATVPSWLKKPQDSQLEEGKPGYLDCLTQATPKPTVVWYRNQMLISEDSRFEVFKNGTLRINSVEVYDGTWYRCMSSTPAGSIEAQARVQVLEKLKFTPPPQPQQCMEFDKEATVPCSATGREKPTIKWERADGSSLPEWVTDNAGTLHFARVTRDDAGNYTCIASNGPQGQIRAHVQLTVAVFITFKVEPERTTVYQGHTALLQCEAQGDPKPLIQWKGKDRILDPTKLGPRMHIFQNGSLVIHDVAPEDSGRYTCIAGNSCNIKHTEAPLYVVDKPVPEESEGPGSPPPYKMIQTIGLSVGAAVAYIIAVLGLMFYCKKRCKAKRLQKQPEGEEPEMECLNGGPLQNGQPSAEIQEEVALTSLGSGPAATNKRHSTSDKMHFPRSSLQPITTLGKSEFGEVFLAKAQGLEEGVAETLVLVKSLQSKDEQQQLDFRRELEMFGKLNHANVVRLLGLCREAEPHYMVLEYVDLGDLKQFLRISKSKDEKLKSQPLSTKQKVALCTQVALGMEHLSNNRFVHKDLAARNCLVSAQRQVKVSALGLSKDVYNSEYYHFRQAWVPLRWMSPEAILEGDFSTKSDVWAFGVLMWEVFTHGEMPHGGQADDEVLADLQAGKARLPQPEGCPSKLYRLMQRCWALSPKDRPSFSEIASALGDSTVDSKP

— PMC6465732
